The text below walks through data of paper PMC7075923.

These are yes or no findings as the source states them, for the method shown. For part of these data: A result given as binding can be weak or reduced; the word gives no strength. Tags and fused reporters may be left off the sequences shown. For part of these data: Binding seen in cells or lysates may run through a third protein.

Assay [1] deals with T1, MNSV p7A (DGBp1 of Melon necrotic spot virus), Gal4 fusion (Melon necrotic spot virus) (UniProt Q8V993).
T1 sequence: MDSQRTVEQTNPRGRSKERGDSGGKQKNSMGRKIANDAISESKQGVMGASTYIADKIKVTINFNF
In words: two-hybrid; GAL4 […] system, yeast AH109; DGBp1 or p7A mutants as Gal4-BD fusions (pGBKT7) against pAC-p7A or pAC-p7 (pACT2); growth on SD + DO-A-H-L-W + X-alpha Gal (HIS3, ADE2, MEL1 reporters).

In assay [2] the target is T2, p7A^Ct (MNSV p7A lacking residues 45 to 65), Gal4-BD fusion (Melon necrotic spot virus) (UniProt Q8V993).
T2 sequence: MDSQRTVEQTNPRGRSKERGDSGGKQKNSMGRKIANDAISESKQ
The description is as above.

In assay [3] the target is T3, p7A^Nt (MNSV p7A lacking residues 1 to 22), Gal4-BD fusion (Melon necrotic spot virus) (UniProt Q8V993).
T3 sequence: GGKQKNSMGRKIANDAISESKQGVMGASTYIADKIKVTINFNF
The assay is described as above.

Assay [4] addresses T4, Nt[GFP]-p7A (Melon necrotic spot virus) (UniProt Q8V993).
T4 sequence: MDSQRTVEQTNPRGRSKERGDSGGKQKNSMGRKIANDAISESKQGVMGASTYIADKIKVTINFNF
Kind of assay: split reporter; BiFC with GFP fragments 1-155 and 156-238; co-expression by agroinfiltration in N. benthamiana leaves; epidermal cells viewed by confocal microscopy three days after agroinfiltration.

For assay [5], the target named is T5, p7A-Nt[GFP] (Melon necrotic spot virus) (UniProt Q8V993).
T5 sequence: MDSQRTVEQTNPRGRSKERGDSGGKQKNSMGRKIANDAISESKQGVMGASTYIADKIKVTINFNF
Described as above.

Assay [6] concerns the target T1, MNSV p7A (DGBp1 of Melon necrotic spot virus), Gal4 fusion (Melon necrotic spot virus). In words: two-hybrid; GAL4 […] system, yeast AH109; DGBp1s and their fnf mutants as Gal4-BD fusions against full-length Arabidopsis ORFs as Gal4-AD fusions; controls pBD-p53 and pAC-ILR3; growth on SD + DO-A-H-L-W + X-alpha Gal.
In assay [7] the target is T6, Ct[GFP]-p7A (Melon necrotic spot virus) (UniProt Q8V993).
T6 sequence: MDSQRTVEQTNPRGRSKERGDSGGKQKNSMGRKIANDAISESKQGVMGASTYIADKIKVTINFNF
In words: split reporter; BiFC with GFP fragments 1-155 and 156-238; co-expression by agroinfiltration in N. benthamiana leaves; epidermal cells viewed by confocal microscopy three days after agroinfiltration.

The target of assay [8] is T7, p7A-Ct[GFP] (Melon necrotic spot virus) (UniProt Q8V993).
T7 sequence: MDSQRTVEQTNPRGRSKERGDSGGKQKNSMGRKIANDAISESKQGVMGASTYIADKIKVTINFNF
The assay is described as above.

For assay [9], the target named is CarMV p7 (DGBp1 of Carnation mottle virus), Gal4 fusion (Carnation mottle virus). Kind of assay: two-hybrid; GAL4 […] system, yeast AH109; DGBp1s and their fnf mutants as Gal4-BD fusions against full-length Arabidopsis ORFs as Gal4-AD fusions; controls pBD-p53 and pAC-ILR3; growth on SD + DO-A-H-L-W + X-alpha Gal.
The target of assay [10] is TCV p8 (DGBp1 of Turnip crinkle virus), Gal4-BD fusion (Turnip crinkle virus). The assay is described as above.
Assay [11] concerns the target Nt[GFP]-p8 (Turnip crinkle virus). In words: split reporter; BiFC with GFP fragments 1-155 and 156-238; co-expression by agroinfiltration in N. benthamiana leaves; epidermal cells viewed by confocal microscopy three days after agroinfiltration.
For assay [12], the target named is Nt[GFP]-p7 (Carnation mottle virus). Described as above.
Assay [13] concerns the target p8-Nt[GFP] (Turnip crinkle virus). Described as above.
The target of assay [14] is p7-Nt[GFP] (Carnation mottle virus). The description is as above.
For assay [15], the target named is Ct[GFP]-p7 (Carnation mottle virus). The description is as above.
Assay [16] concerns the target p8-Ct[GFP] (Turnip crinkle virus). Described as above.
The target of assay [17] is Ct[GFP]-p8 (Turnip crinkle virus). Described as above.
Assay [18] deals with p7-Ct[GFP] (Carnation mottle virus). The assay is described as above.

Consider “CarMV p7 (DGBp1 of Carnation mottle virus), Gal4 fusion”, for which the binding result in [1] was “binds”; in assay [2], “no binding”; in assay [3] it was “binds”.
Regarding eIF3g1 fused to Ct[GFP] (Arabidopsis), the values for the binding entry in [4] and in assay [5] were “binds” and “no binding”, respectively.
With “subunit G of the eukaryotic translation initiation factor 3 (eIF3g1), Gal4-AD fusion (Arabidopsis)”, the binding entry in assay [6] is “binds”.
Take eIF3g1-Nt[GFP] (Arabidopsis): the binding result in [7] was “binds”; in [8], “no binding”.
Take eIF3g2, Gal4 fusion (Arabidopsis): the binding entry in [6] was “no binding”.

B1: 60 S acidic ribosomal protein P3 (RPP3A), Gal4-AD fusion (protein, UniProt Q9SVZ6 1-119)
chain: MGVFTFVCKNGGGAWSAKQHEGELESSASSTYELQRKLVQVSLSADSSGGVQSSFSLVSPTSAVFQVIVGGGGGGGFSAGGAASSGGGAGEAAAAPKEDEKKKEESEEEEGDFGFDLFG
As to B1, the binding entry in [9] and in assay [10] was “binds” throughout.

B2: RPP3A fused to Ct[GFP] (protein, UniProt Q9SVZ6 1-119)
chain: MGVFTFVCKNGGGAWSAKQHEGELESSASSTYELQRKLVQVSLSADSSGGVQSSFSLVSPTSAVFQVIVGGGGGGGFSAGGAASSGGGAGEAAAAPKEDEKKKEESEEEEGDFGFDLFG
As to B2, the binding result in [11] is listed as “binds”; in assay [12] it was “binds”; in assay [13] it was “no binding”; in assay [14] it was “no binding”.

B3: RPP3A-Nt[GFP] (protein, UniProt Q9SVZ6 1-119)
chain: MGVFTFVCKNGGGAWSAKQHEGELESSASSTYELQRKLVQVSLSADSSGGVQSSFSLVSPTSAVFQVIVGGGGGGGFSAGGAASSGGGAGEAAAAPKEDEKKKEESEEEEGDFGFDLFG
As for B3, the binding result in assay [15] is listed as “binds”; in [16] it was “no binding”; in assay [17], “binds”; in assay [18], “no binding”.

B4: RPP3B, Gal4 fusion (protein, UniProt Q9LVC9 1-120)
chain: MGVFSFVCKSKGGEWTAKQHEGDLEASASSTYDLQRKLVQTALSADSSGGVQSSFSLVSPTSAVFVVVIGGGGGGGFAAGGGAAAGGGGGGEAAAATKEEEKKKEESEEEEGDFGFDLFG
On to B4, for which the binding entry in assay [9] and in assay [10] was “no binding” in each case.
